The list shows a part of the results. The main result of the screen is listed elsewhere. These columns were measured beside it and carry no call. The list favours compounds with an active or inconclusive main result. The note in brackets gives the kind of curve behind each potency; many fits are weak.

The nature of the experiment: Cell signaling CRE-BLA (Fsk stim). To be noted: CHO CRE-bla reporter (cAMP response element driving beta-lactamase), forskolin EC10, beta-lactamase ratio; measured here: 460 nm blue channel. An outline of the steps: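 Cells were plated overnight at 37 °C, exposed to compound titrations plus EC10 NKH 477 for 3 h, then given CCF4 dye for 2 h at room temperature. Blue/green (460/530 nm) ratio was converted to %Activity and AC50 values calculated.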
For the molecule `CCOC(=O)CCCNC(=O)COC(=O)c1cccc(C)c1O`, the AC50 – broadly, the concentration giving half of the maximal activity seen – is 0.398 µM [rising, single point].
As for `O=C(COc1ccccc1)Nc1ccccc1N1CCCCC1`, the AC50 is 7.94 µM [rising, partial curve].
Regarding `O=C(Nc1cccnc1)c1c(F)c(F)c(F)c(F)c1F`, the AC50 was 12.6 µM [falling, partial curve].
With `O=C(CC(CC(=O)c1ccccc1)C(=O)O)c1ccccc1`, the AC50 is 3.16 µM [falling, partial curve].
The value for `Cc1nc(SCC(=O)Nc2ccc3c(c2)OCCO3)c2oc3ccccc3c2n1` was 0.398 µM [rising, full curve]; that for `N#CC(C(=O)OC1CCCCC1)c1nc2ccccc2nc1N1CCOCC1` (configuration not stated) was 15.8 µM [rising, partial curve]; that for `CCN(CC)C(=O)c1sc(NC(=O)Cc2cccs2)c(C#N)c1C` was 10 µM [rising, partial curve].
For `Cc1ccc(C)c(-c2nnc(OCC(=O)Nc3cc(C)on3)c3ccccc23)c1`, the AC50 is 10 µM [rising, single point].
Regarding `CCCCN(CCCC)S(=O)(=O)c1ccc2oc(C(=O)N3CCOCC3)c(C)c2c1`, the AC50 was 25.1 µM [rising, single point].
On to `COc1ccccc1-c1noc(-c2cc(OC)c(OC)c(OC)c2)n1`, for which the AC50 was 0.794 µM [rising, full curve].
Then `CC[C@]1(O)C[C@@H]2CN(CCc3c([nH]c4ccccc34)[C@](C(=O)OC)(c3cc4c(cc3OC)N(C=O)[C@H]3[C@@](O)(C(=O)OC)[C@H](C(=O)OC)[C@@]5(CC)C=CCN6CC[C@]43[C@H]65)C2)C1`, with 0.501 µM [rising, full curve]; and `Nc1c(C(=O)NCCN2CCOCC2)c2nc3ccccc3nc2n1-c1ccccc1`, with 3.16 µM [falling, full curve].
Consider `C=C(C)COc1ccc(-c2nc(N)ncc2-c2ccc(OC)cc2)c(O)c1`, for which the AC50 is 12.6 µM [falling, partial curve].
On to `COc1ccc(Cc2nnn(CC(=O)O)n2)cc1`, for which the AC50 is 0.158 µM [falling, full curve].
Turning to `CCOc1ccc2nc(SCC(=O)NC3CCS(=O)(=O)C3)[nH]c2c1` (configuration not stated), the concentration at half-maximal activity (AC50) was 0.0794 µM [falling, full curve].
In the case of `COCCn1c(=O)c(-c2cc(F)cc(F)c2)nc2cnc(N3CCN(C)CC3)nc21`, the AC50 is 12.6 µM [rising, partial curve].
Consider `COC(=O)c1cccc(NC(=O)CN2CCC(NC(=O)c3cc(OC)c(OC)c(OC)c3)CC2)c1`, for which the AC50 was 12.6 µM [rising, partial curve].
With `Cc1[nH]nc2c1C(c1ccc(F)cc1)C1=C(CC(C)(C)CC1=O)N2` (configuration not stated), the AC50 was 0.794 µM [falling, full curve].
`Cc1cc(-n2ccc(=O)[nH]c2=O)nc(-c2ccccc2)n1`: the AC50 is 12.6 µM [rising, single point].
Take `O=C(Nc1ccc(-c2noc(CCc3ccccc3)n2)cc1)c1ccco1`: the AC50 is 3.16 µM [falling, full curve, poor fit].
Take `CCC1(CC)Cc2ccccc2-c2nc(CN3CCOCC3)[nH]c(=O)c21`: the half-maximal activity concentration (AC50) was 10 µM [rising, single point].
Regarding `Cc1n[nH]c(=O)nc1N1CCc2ccccc2C1`, the AC50 is 0.00398 µM [falling, full curve, poor fit].
Consider `CCOCCCNC(=O)NC12CC3CC(CC(C3)C1)C2`, for which the AC50 is 3.98 µM [rising, partial curve].
`O=C(Nc1ncc(Cc2ccccc2)s1)c1cccs1`: the AC50 is 5.01 µM [rising, single point].
In the case of `CCN(CC)c1nc(N)c2c(N)nc3c(c2c1C#N)CC(c1ccccc1)O3` (configuration not stated), the AC50 is 12.6 µM [rising, partial curve].
As to `CCOC(=O)c1c(NC(=O)CSc2nnnn2C)sc(C)c1C`, the AC50 was 12.6 µM [rising, single point].
Then `CCCOC(=O)c1ccc(-c2c(C)noc2-c2ccc(OC)cc2O)o1`, with 25.1 µM [falling, single point].
Turning to `COc1ccccc1N1CCN(C(=O)c2cc3c(=O)n(C)c4ccccc4c3n2C)CC1`, the AC50 is 3.16 µM [rising, partial curve].
In the case of `COc1ccc(-n2c(=O)c(-c3cccs3)nc3cnc(Oc4ccccc4)nc32)cc1`, the AC50 was 5.01 µM [rising, partial curve].
The value for `CCOC(=O)N1CCN(c2ccc(S(=O)(=O)N(Cc3ccccc3)Cc3ccccc3)cn2)CC1` was 0.126 µM [falling, partial curve].
In the case of `O=S(=O)(O)c1ccc2cc(N=Nc3cc(S(=O)(=O)O)c4cccnc4c3O)ccc2c1`, the AC50 was 3.98 µM [rising, single point].
Turning to `CCc1ccccc1NC1c2ccccc2C(=O)N1c1cccnc1` (configuration not stated), the AC50 was 0.1 µM [falling, partial curve, poor fit].
Regarding `Nc1c(C(=O)NCC2CCCO2)c2nc3ccccc3nc2n1-c1ccccc1` (configuration not stated), the AC50 was 12.6 µM [rising, partial curve].
As to `Cc1nc(NCc2ccc3c(c2)OCO3)c2oc3ccccc3c2n1`, the AC50 was 3.98 µM [rising, partial curve].
Turning to `O=C(c1cccn2c(=O)c3cc(Cl)ccc3nc12)N1CCOCC1`, the AC50 was 1.26 µM [rising, full curve].
Regarding `CC(=O)O[C@]1(C(C)=O)CC[C@H]2[C@@H]3C[C@H](C)C4=CC(=O)CC[C@]4(C)[C@H]3CC[C@@]21C`, the AC50 was 25.1 µM [rising, partial curve].
`CC(C)C(=O)Nc1cc(C(F)(F)F)ccc1N1CCOCC1`: the AC50 was 0.501 µM [rising, full curve, poor fit].
Then `Cc1cc(NC(=O)c2ccc3nc(-c4ccccc4)c(-c4ccccc4)nc3c2)no1`, with 25.1 µM [falling, single point]; and `CCc1nc2ccccc2c(C(=O)OCC(=O)NCc2ccco2)c1C`, with 10 µM [rising, partial curve].
`CC(=O)NC12CC3CC(C)(C1)CC(NC(C)=O)(C3)C2`: the AC50 was 0.00398 µM [falling, full curve, poor fit].
Turning to `NC(=O)c1c(NC(=O)c2cc3ccccc3o2)sc2c1CCC2`, the AC50 was 15.8 µM [rising, partial curve].
Then `CC(C)Cc1nc2oc3c(N4CCN(CCO)CC4)ncnc3c2c2c1CCCC2`, with 6.31 µM [rising, partial curve]; and `COc1cccc(Cn2c(=O)c(-c3cc(F)cc(F)c3)nc3cnc(N(C)C)nc32)c1`, with 3.98 µM [rising, partial curve].
`O=C(c1ccco1)N1CCN(C(=O)c2ccc(COc3ccc(F)cc3)o2)CC1`: the AC50 was 0.0158 µM [falling, full curve, poor fit].
In the case of `CC(C)Oc1ccc(C(CC(=O)O)NC(=O)CSc2ncn[nH]2)cc1` (configuration not stated), the AC50 is 0.251 µM [falling, partial curve].
Take `Cc1cc(C)c(C(N)=O)c(Nc2cccc(Cl)c2C)n1`: the AC50 is 25.1 µM [rising, single point].
As to `CC(C)CNc1cc(=O)n(C)c(=O)n1C`, the AC50 is 2.51 µM [rising, full curve].
Turning to `CCc1c2c(nc3cccc(SC)c13)COC2`, the concentration at half-maximal activity (AC50) is 7.94 µM [rising, partial curve].
For `Cn1c(N)c(S(=O)(=O)c2ccc(Br)cc2)c2nc3ccccc3nc21`, the AC50 was 12.6 µM [rising, partial curve].
The value for `CS(=O)(=O)Nc1cccc(-c2ccc3ncnc(NCc4cccs4)c3c2)c1` was 6.31 µM [rising, full curve]; that for `CS(=O)(=O)c1ccc2nc(NC(=O)C3COc4ccccc4O3)sc2c1` (configuration not stated) was 0.0316 µM [falling, full curve, poor fit].
For the molecule `Clc1ccc(-n2ncc3c(NCCN4CCOCC4)ncnc32)cc1`, the AC50 is 10 µM [rising, partial curve].
Consider `Nc1nc2n[nH]nc2c(=O)[nH]1`, for which the AC50 was 5.01 µM [rising, partial curve].
With `O=c1c(-c2cccc(F)c2)nc2cncnc2n1Cc1ccccc1Cl`, the AC50 is 12.6 µM [rising, single point].
For the molecule `O=C(O)CCCC(=O)NCCc1cccc(Cl)c1`, the AC50 was 0.631 µM [rising, full curve, poor fit].
Take `Cc1ccc(Nc2cc(C)nn2-c2nc(C)cc(=O)[nH]2)cc1`: the AC50 was 10 µM [rising, single point].
The value for `Cc1cc(NC(=O)Cn2cnc3c(cnn3C(C)(C)C)c2=O)no1` was 0.0158 µM [falling, full curve, poor fit].
Regarding `CCNc1nc2c(c(=O)[nH]c(=O)n2C)n1CC(C)C`, the AC50 is 12.6 µM [rising, partial curve].
Take `O=C(CCN1CCc2ccccc2C1)c1ccc2c(c1)OCCO2`: the AC50 was 10 µM [falling, partial curve].
Then `CCC1=C/C(=C\c2ccc3c(c2)OCO3)C(=O)S1`, with 10 µM [falling, partial curve, poor fit].
In the case of `COc1ccccc1N1CCN(c2nc(C)nc3c2oc2ccccc23)CC1`, the AC50 was 2 µM [rising, partial curve].
`O=C(Cc1n[nH]c(=O)c2ccccc12)NCc1ccccn1`: the AC50 is 3.16 µM [falling, partial curve, poor fit].
As to `CC(=O)NC(CCS(C)(=O)=O)C(=O)Nc1ccc(F)cc1Cl` (configuration not stated), the AC50 is 2.51 µM [falling, single point].
The value for `COc1ccc(CCN(Cc2cc3cc(C)ccc3[nH]c2=O)C(=O)N2CCCC2)cc1OC` was 12.6 µM [rising, single point].
For the molecule `O=C(COn1nnc2ccccc21)NCC1CCCCC1`, the AC50 was 3.98 µM [falling, single point].
On to `COc1ccc2c(Cl)c(-c3nnc(SCC(N)=O)n3C)sc2c1`, for which the AC50 was 10 µM [rising, partial curve].
As for `CC(C)OCCCNC(=O)CN1CCN(Cc2ccccc2Cl)C1=O`, the AC50 is 3.16 µM [rising, partial curve].

The values are drawn from PubChem BioAssay AID662 (National Center for Advancing Translational Sciences (NCATS), 2007).
